{"source": "patent US10100372B2", "about": "“Recombinant RSV reporter virus” (priority 2014, dated 2018)", "tested_on": "recRSV A2-L19F F mutants (D401E, D489E, D401E/D489E)", "format": "cell-based, Respiratory Syncytial Virus", "conditions": "mutations in either F microdomain versus standard recRSV A2-L19F", "note": "Some entries share one result that the patent states for a list of compounds.", "data": [{"compound": "Cc1ccc(-n2c(SCC(=O)N/N=C/c3c4ccccc4cc4ccccc34)nnc2-c2ccccc2)cc1", "note": "[GPAR-3710]", "values": [{"measurement": "increase of EC90 concentration by resistance mutations", "value": "over 30 fold"}]}]}
